Some of the results follow. Most entries show no effect beyond the scatter of the controls.

Protein sequences, listed by entry. Tags and fused reporters are not part of them. Lines headed by an entry give the natural chain unless they say otherwise; changes in a name come on top.
UniProt Q9Z1M8, whole entry: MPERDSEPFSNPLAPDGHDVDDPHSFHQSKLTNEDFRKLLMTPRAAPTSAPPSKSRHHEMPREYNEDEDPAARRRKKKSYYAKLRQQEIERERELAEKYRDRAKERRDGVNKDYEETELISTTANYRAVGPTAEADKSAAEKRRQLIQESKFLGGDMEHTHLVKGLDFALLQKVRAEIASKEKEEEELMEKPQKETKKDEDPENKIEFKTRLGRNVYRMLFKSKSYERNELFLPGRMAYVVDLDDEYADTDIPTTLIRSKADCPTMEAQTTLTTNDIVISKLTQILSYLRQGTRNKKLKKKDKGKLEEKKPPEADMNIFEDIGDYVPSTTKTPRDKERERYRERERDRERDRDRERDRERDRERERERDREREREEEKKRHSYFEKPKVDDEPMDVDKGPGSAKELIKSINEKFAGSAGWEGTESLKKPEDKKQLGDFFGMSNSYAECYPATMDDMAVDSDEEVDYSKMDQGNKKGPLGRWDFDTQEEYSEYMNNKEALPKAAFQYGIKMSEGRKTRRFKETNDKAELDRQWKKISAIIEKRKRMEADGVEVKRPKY
UniProt Q9R013: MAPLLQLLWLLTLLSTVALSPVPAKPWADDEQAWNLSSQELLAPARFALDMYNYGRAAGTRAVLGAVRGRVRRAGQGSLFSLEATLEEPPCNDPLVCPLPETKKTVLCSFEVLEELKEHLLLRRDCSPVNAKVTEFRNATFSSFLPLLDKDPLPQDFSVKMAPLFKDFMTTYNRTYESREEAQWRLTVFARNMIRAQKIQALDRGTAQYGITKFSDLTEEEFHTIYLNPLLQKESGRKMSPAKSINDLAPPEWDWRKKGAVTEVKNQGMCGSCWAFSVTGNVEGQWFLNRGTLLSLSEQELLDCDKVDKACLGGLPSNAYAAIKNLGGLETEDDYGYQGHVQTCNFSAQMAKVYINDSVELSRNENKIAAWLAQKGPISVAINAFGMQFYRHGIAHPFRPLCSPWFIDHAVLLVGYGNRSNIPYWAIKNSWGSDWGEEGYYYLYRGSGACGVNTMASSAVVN
UniProt Q9Z0H7: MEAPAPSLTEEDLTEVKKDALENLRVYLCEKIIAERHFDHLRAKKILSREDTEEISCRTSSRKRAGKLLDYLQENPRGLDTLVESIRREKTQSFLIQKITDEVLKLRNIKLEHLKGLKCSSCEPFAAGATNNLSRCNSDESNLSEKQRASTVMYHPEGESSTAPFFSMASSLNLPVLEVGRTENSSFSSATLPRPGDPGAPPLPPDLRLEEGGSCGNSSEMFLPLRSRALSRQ
UniProt Q9R0A0, whole entry: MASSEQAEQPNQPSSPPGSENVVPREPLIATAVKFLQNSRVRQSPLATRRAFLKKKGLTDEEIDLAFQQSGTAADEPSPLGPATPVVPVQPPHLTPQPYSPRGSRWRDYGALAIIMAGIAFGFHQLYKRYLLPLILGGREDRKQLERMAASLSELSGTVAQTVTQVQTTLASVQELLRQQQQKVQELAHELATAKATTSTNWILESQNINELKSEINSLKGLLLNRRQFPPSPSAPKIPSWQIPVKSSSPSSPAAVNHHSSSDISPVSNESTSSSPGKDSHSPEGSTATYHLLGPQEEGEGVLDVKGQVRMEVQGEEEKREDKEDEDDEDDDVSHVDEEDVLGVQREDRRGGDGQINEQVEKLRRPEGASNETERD
UniProt Q9R049, whole entry: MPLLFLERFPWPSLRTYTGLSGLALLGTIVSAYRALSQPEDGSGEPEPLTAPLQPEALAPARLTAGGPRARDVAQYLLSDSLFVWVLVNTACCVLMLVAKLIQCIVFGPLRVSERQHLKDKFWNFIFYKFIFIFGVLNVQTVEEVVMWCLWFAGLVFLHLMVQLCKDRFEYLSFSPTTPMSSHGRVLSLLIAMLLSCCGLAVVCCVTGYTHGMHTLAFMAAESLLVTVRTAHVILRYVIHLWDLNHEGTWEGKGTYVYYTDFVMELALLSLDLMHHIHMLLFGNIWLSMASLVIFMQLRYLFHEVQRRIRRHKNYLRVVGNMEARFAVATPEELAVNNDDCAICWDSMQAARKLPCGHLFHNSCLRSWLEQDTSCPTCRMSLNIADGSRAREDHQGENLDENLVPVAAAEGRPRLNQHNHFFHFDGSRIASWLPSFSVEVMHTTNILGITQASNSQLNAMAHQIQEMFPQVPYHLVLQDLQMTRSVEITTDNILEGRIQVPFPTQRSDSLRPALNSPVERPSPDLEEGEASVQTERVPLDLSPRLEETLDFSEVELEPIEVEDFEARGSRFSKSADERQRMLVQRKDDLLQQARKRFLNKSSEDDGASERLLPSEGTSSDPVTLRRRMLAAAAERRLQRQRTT
UniProt Q9Z1T2: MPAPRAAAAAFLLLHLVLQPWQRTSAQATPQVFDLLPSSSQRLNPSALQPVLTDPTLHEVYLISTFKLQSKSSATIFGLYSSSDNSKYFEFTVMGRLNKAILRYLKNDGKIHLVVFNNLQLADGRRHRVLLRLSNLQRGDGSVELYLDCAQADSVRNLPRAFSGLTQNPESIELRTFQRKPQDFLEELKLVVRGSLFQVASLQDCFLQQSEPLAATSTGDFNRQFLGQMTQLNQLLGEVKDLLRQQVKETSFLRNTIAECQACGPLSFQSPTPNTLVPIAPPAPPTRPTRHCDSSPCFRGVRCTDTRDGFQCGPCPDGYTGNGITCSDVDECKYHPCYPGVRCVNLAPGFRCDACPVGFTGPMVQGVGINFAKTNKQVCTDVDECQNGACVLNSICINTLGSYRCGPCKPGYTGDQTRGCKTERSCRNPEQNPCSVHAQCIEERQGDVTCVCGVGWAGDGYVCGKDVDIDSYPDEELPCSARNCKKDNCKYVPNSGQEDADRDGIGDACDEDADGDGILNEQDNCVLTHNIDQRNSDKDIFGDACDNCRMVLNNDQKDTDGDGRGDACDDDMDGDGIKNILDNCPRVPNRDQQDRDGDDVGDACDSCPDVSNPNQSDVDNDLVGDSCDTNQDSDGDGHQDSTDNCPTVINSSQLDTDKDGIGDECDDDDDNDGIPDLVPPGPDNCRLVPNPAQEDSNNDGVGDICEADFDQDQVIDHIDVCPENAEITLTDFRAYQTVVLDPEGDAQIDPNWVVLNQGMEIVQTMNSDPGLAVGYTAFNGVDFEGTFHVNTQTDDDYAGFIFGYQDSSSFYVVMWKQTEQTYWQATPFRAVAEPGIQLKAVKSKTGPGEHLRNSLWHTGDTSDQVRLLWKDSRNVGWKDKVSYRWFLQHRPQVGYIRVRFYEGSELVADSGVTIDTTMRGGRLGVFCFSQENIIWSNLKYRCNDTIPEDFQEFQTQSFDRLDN
UniProt Q9WVL3: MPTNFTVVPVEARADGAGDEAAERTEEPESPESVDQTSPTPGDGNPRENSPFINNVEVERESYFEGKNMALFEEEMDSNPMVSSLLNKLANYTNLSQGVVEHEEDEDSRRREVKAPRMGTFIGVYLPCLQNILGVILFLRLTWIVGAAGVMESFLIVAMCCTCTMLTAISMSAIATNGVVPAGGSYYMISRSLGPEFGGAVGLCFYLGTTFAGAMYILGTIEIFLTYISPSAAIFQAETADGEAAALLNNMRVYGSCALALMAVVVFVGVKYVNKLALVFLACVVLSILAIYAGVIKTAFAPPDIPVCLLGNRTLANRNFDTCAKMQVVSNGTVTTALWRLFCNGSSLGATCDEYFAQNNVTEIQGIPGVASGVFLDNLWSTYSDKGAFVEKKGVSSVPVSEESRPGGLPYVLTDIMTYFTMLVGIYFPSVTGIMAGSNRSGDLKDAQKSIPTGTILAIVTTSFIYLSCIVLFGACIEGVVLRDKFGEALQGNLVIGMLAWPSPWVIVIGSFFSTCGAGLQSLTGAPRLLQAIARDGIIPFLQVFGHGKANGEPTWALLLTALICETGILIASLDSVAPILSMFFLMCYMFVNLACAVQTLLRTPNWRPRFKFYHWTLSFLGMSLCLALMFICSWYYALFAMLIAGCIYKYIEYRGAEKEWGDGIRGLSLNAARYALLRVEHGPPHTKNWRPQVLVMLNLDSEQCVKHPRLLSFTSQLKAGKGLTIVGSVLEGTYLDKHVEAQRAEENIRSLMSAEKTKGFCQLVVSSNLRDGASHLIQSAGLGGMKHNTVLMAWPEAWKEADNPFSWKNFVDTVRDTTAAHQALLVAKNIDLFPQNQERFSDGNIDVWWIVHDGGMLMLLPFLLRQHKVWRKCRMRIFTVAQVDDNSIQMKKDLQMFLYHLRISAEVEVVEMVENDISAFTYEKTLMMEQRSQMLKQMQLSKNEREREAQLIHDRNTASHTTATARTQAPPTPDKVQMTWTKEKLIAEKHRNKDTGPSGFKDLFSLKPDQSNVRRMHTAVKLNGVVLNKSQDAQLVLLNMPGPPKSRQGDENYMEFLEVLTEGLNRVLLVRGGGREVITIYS
UniProt Q9WVT6: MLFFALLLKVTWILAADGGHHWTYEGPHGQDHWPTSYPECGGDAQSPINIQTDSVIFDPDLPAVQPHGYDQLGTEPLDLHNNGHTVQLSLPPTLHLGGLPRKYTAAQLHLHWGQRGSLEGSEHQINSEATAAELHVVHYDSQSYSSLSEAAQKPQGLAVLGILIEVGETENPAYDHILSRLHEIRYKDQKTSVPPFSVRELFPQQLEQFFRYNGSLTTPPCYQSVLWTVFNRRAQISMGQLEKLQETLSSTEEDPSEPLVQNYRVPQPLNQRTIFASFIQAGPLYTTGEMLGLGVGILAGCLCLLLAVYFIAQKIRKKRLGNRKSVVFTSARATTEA
UniProt Q9WV55: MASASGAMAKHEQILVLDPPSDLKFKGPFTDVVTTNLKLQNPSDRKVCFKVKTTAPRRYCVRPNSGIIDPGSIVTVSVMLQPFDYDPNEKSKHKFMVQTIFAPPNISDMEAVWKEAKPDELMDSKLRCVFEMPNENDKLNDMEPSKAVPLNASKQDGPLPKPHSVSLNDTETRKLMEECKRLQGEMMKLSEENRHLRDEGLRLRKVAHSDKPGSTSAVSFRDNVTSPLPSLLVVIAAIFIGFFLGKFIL
UniProt Q9R1Z8: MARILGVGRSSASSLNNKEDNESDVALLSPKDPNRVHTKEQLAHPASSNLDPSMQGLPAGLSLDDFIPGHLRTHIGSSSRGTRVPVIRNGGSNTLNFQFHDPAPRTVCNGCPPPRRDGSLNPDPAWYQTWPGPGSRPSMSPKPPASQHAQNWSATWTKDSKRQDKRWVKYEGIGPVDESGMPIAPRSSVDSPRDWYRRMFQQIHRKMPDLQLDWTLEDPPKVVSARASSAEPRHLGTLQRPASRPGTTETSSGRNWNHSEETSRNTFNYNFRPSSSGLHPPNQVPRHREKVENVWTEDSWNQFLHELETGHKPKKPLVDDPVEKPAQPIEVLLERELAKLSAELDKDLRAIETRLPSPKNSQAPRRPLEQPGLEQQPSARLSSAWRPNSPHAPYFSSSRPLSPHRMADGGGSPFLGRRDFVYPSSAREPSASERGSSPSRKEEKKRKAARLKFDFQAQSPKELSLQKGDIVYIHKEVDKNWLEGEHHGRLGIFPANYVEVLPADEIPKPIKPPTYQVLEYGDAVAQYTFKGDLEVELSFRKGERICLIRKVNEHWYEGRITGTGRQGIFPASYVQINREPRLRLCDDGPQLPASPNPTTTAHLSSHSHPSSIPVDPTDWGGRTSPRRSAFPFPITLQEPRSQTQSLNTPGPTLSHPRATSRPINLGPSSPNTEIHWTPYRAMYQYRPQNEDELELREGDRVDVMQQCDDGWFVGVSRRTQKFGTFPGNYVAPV
UniProt Q9R1V6: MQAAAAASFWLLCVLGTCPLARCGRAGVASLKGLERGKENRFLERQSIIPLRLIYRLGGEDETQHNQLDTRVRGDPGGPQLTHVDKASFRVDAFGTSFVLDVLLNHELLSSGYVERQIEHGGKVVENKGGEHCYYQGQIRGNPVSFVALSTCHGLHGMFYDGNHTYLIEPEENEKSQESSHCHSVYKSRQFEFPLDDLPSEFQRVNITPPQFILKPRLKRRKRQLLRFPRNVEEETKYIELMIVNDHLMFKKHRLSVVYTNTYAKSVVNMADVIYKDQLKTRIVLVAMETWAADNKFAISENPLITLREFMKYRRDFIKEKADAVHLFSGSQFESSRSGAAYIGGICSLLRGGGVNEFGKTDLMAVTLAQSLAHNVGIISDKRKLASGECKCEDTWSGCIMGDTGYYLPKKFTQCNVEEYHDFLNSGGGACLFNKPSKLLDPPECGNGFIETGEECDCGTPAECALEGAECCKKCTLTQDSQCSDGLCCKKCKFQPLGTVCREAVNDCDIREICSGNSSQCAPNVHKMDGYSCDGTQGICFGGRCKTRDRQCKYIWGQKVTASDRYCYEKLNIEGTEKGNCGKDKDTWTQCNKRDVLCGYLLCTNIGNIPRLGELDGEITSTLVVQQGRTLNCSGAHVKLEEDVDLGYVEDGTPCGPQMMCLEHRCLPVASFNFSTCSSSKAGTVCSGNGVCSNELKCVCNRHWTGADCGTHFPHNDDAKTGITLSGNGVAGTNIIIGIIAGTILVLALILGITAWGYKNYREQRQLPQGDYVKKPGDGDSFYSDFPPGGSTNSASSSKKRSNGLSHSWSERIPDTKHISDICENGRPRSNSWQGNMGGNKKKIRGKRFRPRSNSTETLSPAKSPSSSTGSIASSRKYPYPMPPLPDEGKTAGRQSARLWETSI

Compound in the assay: CN[C@@H]1C[C@H]2O[C@@](C)([C@@H]1OC)n1c3ccccc3c3c4c(c5c6ccccc6n2c5c31)C(=O)NC4 [staurosporine]
Briefly: log2 fold change of pooled soluble protein (PISA), ligand vs vehicle (log2 ratio); higher = more thermally stabilized. To be noted: ligand concentration: 20 uM; assay format: PISA pool 52.9/55.5/58.6 C.
On to UniProt Q9Z1M8, for which the “log2 fold change of pooled soluble protein” value (“log2 fold change” for short) was -0.104. With UniProt Q9Z204, the “log2 fold change” value worked out at 0.0102. For UniProt Q9R013 the value was 0.0213; for UniProt Q9WTL8, -0.304; for UniProt Q9Z0H7, -0.0879. The figure for UniProt Q9WTQ8 is -0.38; for UniProt Q9R0A0 it is -0.0155. The figure for UniProt Q9R049 is -0.0378; for UniProt Q9Z1T2 it is -0.141; for UniProt Q9WV80 it is -0.0515. Turning to UniProt Q9QZD8, the “log2 fold change” value is -0.165. For UniProt Q9WVL3 the value was 0.131; for UniProt Q9Z0N1, -0.0477; for UniProt Q9R0Q3, -0.0568. The figure for UniProt Q9WVT6 is 0.0242; for UniProt Q9WV85 it is -0.0916.

With UniProt Q9WTU6, the “log2 fold change” value came out at 0.506. The figure for UniProt Q9QZR0 is 0.000992; for UniProt Q9WV68 it is -0.0252; for UniProt Q9R0Y5 it is -0.0452. For UniProt Q9R0I7 the value was -0.237. For UniProt Q9QZ23 the value was 0.12; for UniProt Q9R008, -0.0757. On to UniProt Q9Z1R4, for which the “log2 fold change” value was -0.106. UniProt Q9WV55: the “log2 fold change” value was -0.15. The figure for UniProt Q9QZD9 is -0.00102; for UniProt Q9WTX6 it is -0.00952. For UniProt Q9Z103 the value was 0.0216; for UniProt Q9R1Z8, 0.0453; for UniProt Q9WV92, 0.0069. The figure for UniProt Q9WVD4 is -0.0357.

In the case of UniProt Q9WU60, the “log2 fold change” value was determined as 0.213. For UniProt Q9R0M4 the value was 0.287; for UniProt Q9Z2I0, 0.0401. In the case of UniProt Q9WTR5, the “log2 fold change” value was found to be 0.0822. Consider UniProt Q9Z1G3, for which the “log2 fold change” value was 0.184. For UniProt Q9R1V6 the value was -0.612; for UniProt Q9WV02, 0.152.

The values are drawn from the supplement of paper PMC12819154, “High-throughput peptide-centric local stability assay extends protein–ligand identification to membrane proteins, tissues and bacteria” (Nature Structural & Molecular Biology, 2025).
